The results in this text go back to US20180282410A1.

Results are given in words; binding and its absence hold for the method and conditions named. Some results given as binding are weak or reduced against the parent protein; the word gives no strength.

In this assay the target is murine (mu) Robo 4 ECD-PreS-Avi-His (mouse). Nature of the assay: ELISA, hybridoma supernatant on coated antigen. Background: In an ELISA, binding on a coated surface is turned into a signal by an enzyme label.

B1: 01F09 hybridoma clone (Armenian hamster IgG, supernatant) (antibody, V domains shown)
VH: QIQLQESGPGLVKPSQSLSLTCSVTGYSISSGSLWTWIRQFPGNNLEWMGYISYAGGIDYNPSLTSRISITRDTSRNQFFLQLESVTTQDTATYYCATPGGYPFHFDYWGQGTMVTVSS
VL: QPVLTQSPSASASLGASVKLTCTLNSQFSTYNIGWYQQHRDKPPKYVMFVKGDGGHSKADGIPDRFSGSSSGADRYLTISNIQAEDEAIYFCGADYNNAGQYGCVFGSGTHFTVLG
Consider B1, for which the binding result is listed as “binds”.

B2: 01E06 hybridoma clone (Armenian hamster IgG, supernatant) (antibody, V domains shown)
VH: EVQLVESGGGLSQPGNSLKLSCEASGFTFRNYDMSWVRQAPGKGLEWVAYISSGGGPIYYVDAVKGRFTISRDNAKNLLFLQMNNLRSEDTAVYYCARDLADIGVFDYWGQGTMVTVSS
VL: DFKMTQSPDILSPSLGESVTITCQSSQNIYSNLAWYQQKPGEHPKLLIYTASILADGIPSRFTGSGSGTQFSLKISSLQPDDVANYYCQQYVYYRTFGPGTKLEIK
Consider B2, for which the binding entry is “binds”.

B3: 01F05 hybridoma clone (Armenian hamster IgG, supernatant) (antibody, V domains shown)
VH: QVQLKQSGAELVKPGASVKISCKTSVYTFTYGYMHWVEQKPGQGLEWIGRIDPDSGNSMYNQKFQGRATLTRDKSSSTVYMELRSLTSEDSAVYYCARSMRYSGYRDYALDLWGQGTQVTVSS
VL: QLVLTQSPSASASLGASVKLTCTLSSQHSSYGITWLQQHPDKAPKYVMYLKSDGSHTKGADIPDRFSGSSSGVHRYLSISNVQPEDEAIYFCVTYDSTHVFGSGTQLTVLG
On to B3, for which the binding entry is listed as “binds”.
